PubChem BioAssay AID743454 – Peter MacCallum Cancer Centre – 2014
Here is an unselected part of about 18,000 deposited reagents. 450 of them (2.5%) count as active. 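Single biological run; no consistent viability z cut-off exists, so the class columns, not z-scores, define the calls.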 Entries without a mark were called inactive.

Aim: 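Knock-downs lowering viability or raising caspase 3/7 activity in vorinostat-treated resistant cells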 (primary screen)
Cell system: human HCT116-VR colon cancer cells, selected for vorinostat resistance
Reagent: siRNA pool against human genes, 40 nM siRNA pool
Duration: vorinostat for 24 h, read-out about 72 h after transfection
Treatment: vorinostat at 2.5 µM final
Detection: 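Two measures, CellTiter-Fluor viability and luminescent caspase 3/7 activity, each as fold change against same-plate mock wells, mean of duplicates, then screen-wide robust z-score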
Reading the numbers: viability robust z-score: higher = more viable cells than screen typical; caspase robust z-score: higher = more caspase 3/7 activity than screen typical
Hit rule: 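a knock-down is a hit when classed RV1 or RV2 for lowered viability, or CA1 or CA2 for caspase activation; those lethal without drug were dropped; hits were retested singly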

gene symbol	viability hit class	caspase hit class	viability robust z-score	caspase robust z-score
LUZP4 (leucine zipper protein 4)	no change	no change	0.64	3.45
PIGN (phosphatidylinositol glycan anchor biosynthesis class N)	no change	no change	0.45	-0.18
APEX2 (apurinic/apyrimidinic endodeoxyribonuclease 2)	no change	no change	1.58	-0.64
MYCBPAP (MYCBP associated protein)	RV2 (reduced viability) (active)	no change	-3.07	-0.88
ADRA2B (adrenoceptor alpha 2B)	no change	no change	0.54	-0.3
HERPUD1	no change	no change	0.55	-0.54
FMO1 (flavin containing dimethylaniline monoxygenase 1)	no change	no change	-0.11	-0.13
HACD3 (3-hydroxyacyl-CoA dehydratase 3)	no change	no change	0.23	-0.12
TBC1D21 (TBC1 domain family member 21)	no change	no change	0.98	-0.8
HNRNPH2 (heterogeneous nuclear ribonucleoprotein H2)	no change	no change	0.16	0.01
AZIN2 (antizyme inhibitor 2)	no change	no change	0.24	-0.72
H2AC8 (H2A clustered histone 8)	no change	no change	0.2	-0.34
PCCB (propionyl-CoA carboxylase subunit beta)	no change	no change	0.62	-0.78
SYT5 (synaptotagmin 5)	no change	no change	0.5	-0.35
TOMM70 (translocase of outer mitochondrial membrane 70)	no change (active)	CA2 (caspase activation)	0.12	5.16
LILRB1 (leukocyte immunoglobulin like receptor B1)	no change	no change	-0.57	3.25
MICOS10	no change	no change	-1.38	-0.67
RAB29 (RAB29, member RAS oncogene family)	no change (active)	CA1 (caspase activation)	-0.88	5.2
TCP10L3 (t-complex 10 like 3 (pseudogene))	no change	no change	-0.57	-0.84
HAT1 (histone acetyltransferase 1)	no change	no change	2.12	-0.14
RILP (Rab interacting lysosomal protein)	no change	no change	-0.2	-0.66
AKAP5 (A-kinase anchoring protein 5)	no change	no change	-0.6	-0.38
SLC6A14	no change	no change	-0.18	0.57

Only “viability robust z-score”, for 2 of the entries above:
LILRB1 (leukocyte immunoglobulin like receptor B1) = -0.57
MICOS10 = -1.38
